We go through 1 compound from patent US6759431B2, “Compositions and methods for treating or preventing diseases of body passageways” (Angiotech Pharmaceuticals, Inc., priority 1996, dated 2004).

A short description of the series: Solubility of paclitaxel in cyclodextrin solutions. It counts as physicochemical. Conditions: 50% solution of HPβCD in water, 37° C.

`CC(=O)O[C@H]1C(=O)[C@@]2(C)[C@H]([C@H](OC(=O)c3ccccc3)[C@]3(O)C[C@H](OC(=O)[C@H](O)[C@@H](NC(=O)c4ccccc4)c4ccccc4)C(C)=C1C3(C)C)[C@]1(OC(C)=O)CO[C@@H]1C[C@@H]2O` [paclitaxel] gave a solubility of paclitaxel of 3200 µg/mL.
